System: AAV2
Experiment: AAV2 release after cell lysis (physical titer by ELISA, genome titer by qPCR)
Format: cell-based
Description: An AAV2 suspension upstream process is performed including a cell lysis step using various single reagents, like Triton X-100 (T100) or TDAO at various concentrations or 0.5 M NaCl, all at 37° C. The samples were centrifuged at ~13000 g for 5 min at different time points post lysis, and supernatants were removed and stored at -70° C. for assays. Physical titers were measured by enzyme-linked immunosorbent assay (ELISA) using an AAV2 Titration ELISA kit (Progen) following manufacturer’s protocol, genome titers were measured by quantitative PCR (qPCR) targeting a specific sequence within the transfer vector. All reagents and assay protocols are from MilliporeSigma unless otherwise specified. Among all the conditions tested, 0.5 M NaCl was the only one capable of releasing significant amounts of AAV2 at physical titer of e10 vp/mL and genome titer of e9 gc/mL levels (FIG. 1). Moreover, time-dependent effects from 30 min to 90 min post lysis for all 3 single reagents, and concentration-dependent effects from 0.5% to 1% for both single detergents have been observed (FIG. 1).
The same process is performed as in Example 1 but with NaCl combined with different detergents.
To investigate the optimal concentration of TDAO in combination with 0.5 M NaCl, an AAV2 dissociation test using 0 to 4% of TDAO and including an additional lysis time of 60 min was performed. […]

CCCCCCCCCCCCCC[N+](C)(C)[O-] [TDAO, N,N-Dimethyltertra decylamine N-oxide]
optimal concentration in combination with 0.5 M NaCl (AAV2 dissociation test, 0 to 4% of TDAO, FIG. 3): 2% | best lysis time (TDAO in combination with 0.5 M NaCl, based on genome titers): 90 min
